Data taken from patent US11713341B1, “Antimicrobial NCR13 variant peptides” (Vestaron Corporation, priority 2022, dated 2023).

Tested on: Botrytis cinerea
Test: Antimicrobial bioassay (Botrytis cinerea): growth inhibition by OD600
Format: cell-based
Conditions: relative to NCR13a; for COG Improvement: COG = Cost of goods, yield improvement times the activity improvement; for overall improvement: combining the yield improvement and activity improvement
Method: The antimicrobial effect of the NCR13 variant peptides (NVPs) of the present disclosure were evaluated against the fungal species, Botrytis cinerea. […] The growth of Botrytis cinerea was then assessed via OD600 nm after incubation with a given NVP at room temperature after 96 hours. The IC50 of each peptide analyzed is shown in ppm.
The antimicrobial effect of the NCR13 variant peptides (NVPs) of the present disclosure were evaluated against the fungal species, Botrytis cinerea. […] The growth of Botrytis cinerea was then assessed via OD600 nm after incubation with a given NVP at room temperature after 96 hours.
The NVPs assessed were as follows: NVPM3 (+L) (SEQ ID NO: 5); NVPM5 (+M) (SEQ ID NO: 7); NVPM6 (+F) (SEQ ID NO: 8); NVPM7 (+W) (SEQ ID NO: 9); NVPM9 (+S) (SEQ ID NO: 11); NVPM11 (+Y) (SEQ ID NO: 13); NVPM14 (+D) (SEQ ID NO: 16); and NVPM15 (+E) (SEQ ID NO: 17).
NVPs having an amino acid sequence of SEQ ID NOs: 5, 7, 8, 9, 11, 13, 16, and 17 were generated as described above in Example 1. The peptide, NCR13a, having an amino acid sequence of: […] (SEQ ID NO: 2) was selected as a comparator peptide, with which the antifungal activity of the foregoing NVPs was compared.
The fungal species was Botrytis cinerea was cultured in potato dextrose agar plates. Fungal spores were collected from the agar plates and suspended into de-ionized water, followed by enumeration in a Petroff-Hausser counting chamber (VWR).
The 96-well plates were incubated at room temperature for 96 hours without shaking. The OD600 of the culture plate was determined using SpectraMax plate reader. Relative OD600 was determined by normalizing cell growth to control wells containing neither NVPs nor NCR13a. The OD600 was used to determine IC50.

Q: Which “COG Improvement” value does the source give for `CC[C@H](C)[C@H](NC(=O)[C@H](CS)NC(=O)[C@H](CCCCN)NC(=O)[C@@H]1CCCN1C(=O)[C@@H](NC(=O)[C@H](CCCCN)NC(=O)[C@@H]1CCCN1C(=O)[C@H](CCCCN)NC(=O)[C@H](CCCNC(=N)N)NC(=O)[C@H](CS)NC(=O)[C@H](C)NC(=O)[C@H](Cc1ccccc1)NC(=O)[C@H](CCCCN)NC(=O)[C@H](CCCCN)NC(=O)[C@H](CS)NC(=O)[C@H](CC(=O)O)NC(=O)[C@H](CCCCN)NC(=O)[C@H](CC(=O)O)NC(=O)[C@H](CO)NC(=O)[C@H](CCC(N)=O)NC(=O)[C@H](CS)NC(=O)[C@@H]1CCCN1C(=O)[C@H](CCCCN)NC(=O)[C@@H](NC(=O)CN)[C@@H](C)O)C(C)C)C(=O)N[C@@H](CC(N)=O)C(=O)NCC(=O)N[C@@H](Cc1ccccc1)C(=O)N[C@@H](CS)C(=O)N[C@@H](CCCCN)C(=O)N[C@@H](CS)C(=O)N[C@H](C(=O)N[C@@H](CCCNC(=N)N)C(=O)O)C(C)C` [NCR13a, reference compound] (H-GTKPCQSDKDCKKFACRKPKVPKCINGFCKCVR-OH; N-terminus and C-terminus assumed) here?
A: 1

Q: For `CC[C@H](C)[C@H](NC(=O)[C@H](CS)NC(=O)[C@H](CCCCN)NC(=O)[C@@H]1CCCN1C(=O)[C@@H](NC(=O)[C@H](CCCCN)NC(=O)[C@@H]1CCCN1C(=O)[C@H](CCCCN)NC(=O)[C@H](CCCNC(=N)N)NC(=O)[C@H](CS)NC(=O)[C@H](C)NC(=O)[C@H](Cc1ccccc1)NC(=O)[C@H](CCCCN)NC(=O)[C@H](CCCCN)NC(=O)[C@H](CS)NC(=O)[C@H](CC(=O)O)NC(=O)[C@H](CCCCN)NC(=O)[C@H](CC(=O)O)NC(=O)[C@H](CO)NC(=O)[C@H](CCC(N)=O)NC(=O)[C@H](CS)NC(=O)[C@@H]1CCCN1C(=O)[C@H](CCCCN)NC(=O)[C@@H](NC(=O)[C@H](C)N)[C@@H](C)O)C(C)C)C(=O)N[C@@H](CC(N)=O)C(=O)NCC(=O)N[C@@H](Cc1ccccc1)C(=O)N[C@@H](CS)C(=O)N[C@@H](CCCCN)C(=O)N[C@@H](CS)C(=O)N[C@H](C(=O)N[C@@H](CCCNC(=N)N)C(=O)O)C(C)C` [NVPM1] (H-ATKPCQSDKDCKKFACRKPKVPKCINGFCKCVR-OH; N-terminus and C-terminus assumed), which “COG Improvement” value is on record?
A: 2.16

Q: Which “COG Improvement” value does the source give for `CC[C@H](C)[C@H](NC(=O)[C@H](CS)NC(=O)[C@H](CCCCN)NC(=O)[C@@H]1CCCN1C(=O)[C@@H](NC(=O)[C@H](CCCCN)NC(=O)[C@@H]1CCCN1C(=O)[C@H](CCCCN)NC(=O)[C@H](CCCNC(=N)N)NC(=O)[C@H](CS)NC(=O)[C@H](C)NC(=O)[C@H](Cc1ccccc1)NC(=O)[C@H](CCCCN)NC(=O)[C@H](CCCCN)NC(=O)[C@H](CS)NC(=O)[C@H](CC(=O)O)NC(=O)[C@H](CCCCN)NC(=O)[C@H](CC(=O)O)NC(=O)[C@H](CO)NC(=O)[C@H](CCC(N)=O)NC(=O)[C@H](CS)NC(=O)[C@@H]1CCCN1C(=O)[C@H](CCCCN)NC(=O)[C@@H](NC(=O)[C@@H](N)CC(C)C)[C@@H](C)O)C(C)C)C(=O)N[C@@H](CC(N)=O)C(=O)NCC(=O)N[C@@H](Cc1ccccc1)C(=O)N[C@@H](CS)C(=O)N[C@@H](CCCCN)C(=O)N[C@@H](CS)C(=O)N[C@H](C(=O)N[C@@H](CCCNC(=N)N)C(=O)O)C(C)C` [NVPM3] (H-LTKPCQSDKDCKKFACRKPKVPKCINGFCKCVR-OH; N-terminus and C-terminus assumed) here?
A: 5.27

Q: What about the overall improvement of the same compound?
A: 5.3 fold

Q: Which “COG Improvement” value does the source give for `CC[C@H](C)[C@H](NC(=O)[C@H](CS)NC(=O)[C@H](CCCCN)NC(=O)[C@@H]1CCCN1C(=O)[C@@H](NC(=O)[C@H](CCCCN)NC(=O)[C@@H]1CCCN1C(=O)[C@H](CCCCN)NC(=O)[C@H](CCCNC(=N)N)NC(=O)[C@H](CS)NC(=O)[C@H](C)NC(=O)[C@H](Cc1ccccc1)NC(=O)[C@H](CCCCN)NC(=O)[C@H](CCCCN)NC(=O)[C@H](CS)NC(=O)[C@H](CC(=O)O)NC(=O)[C@H](CCCCN)NC(=O)[C@H](CC(=O)O)NC(=O)[C@H](CO)NC(=O)[C@H](CCC(N)=O)NC(=O)[C@H](CS)NC(=O)[C@@H]1CCCN1C(=O)[C@H](CCCCN)NC(=O)[C@@H](NC(=O)[C@@H](N)CCSC)[C@@H](C)O)C(C)C)C(=O)N[C@@H](CC(N)=O)C(=O)NCC(=O)N[C@@H](Cc1ccccc1)C(=O)N[C@@H](CS)C(=O)N[C@@H](CCCCN)C(=O)N[C@@H](CS)C(=O)N[C@H](C(=O)N[C@@H](CCCNC(=N)N)C(=O)O)C(C)C` [NVPM5] (H-MTKPCQSDKDCKKFACRKPKVPKCINGFCKCVR-OH; N-terminus and C-terminus assumed) here?
A: 3.73

Q: With `CC[C@H](C)[C@H](NC(=O)[C@H](CS)NC(=O)[C@H](CCCCN)NC(=O)[C@@H]1CCCN1C(=O)[C@@H](NC(=O)[C@H](CCCCN)NC(=O)[C@@H]1CCCN1C(=O)[C@H](CCCCN)NC(=O)[C@H](CCCNC(=N)N)NC(=O)[C@H](CS)NC(=O)[C@H](C)NC(=O)[C@H](Cc1ccccc1)NC(=O)[C@H](CCCCN)NC(=O)[C@H](CCCCN)NC(=O)[C@H](CS)NC(=O)[C@H](CC(=O)O)NC(=O)[C@H](CCCCN)NC(=O)[C@H](CC(=O)O)NC(=O)[C@H](CO)NC(=O)[C@H](CCC(N)=O)NC(=O)[C@H](CS)NC(=O)[C@@H]1CCCN1C(=O)[C@H](CCCCN)NC(=O)[C@@H](NC(=O)[C@@H](N)Cc1ccccc1)[C@@H](C)O)C(C)C)C(=O)N[C@@H](CC(N)=O)C(=O)NCC(=O)N[C@@H](Cc1ccccc1)C(=O)N[C@@H](CS)C(=O)N[C@@H](CCCCN)C(=O)N[C@@H](CS)C(=O)N[C@H](C(=O)N[C@@H](CCCNC(=N)N)C(=O)O)C(C)C` [NVPM6] (H-FTKPCQSDKDCKKFACRKPKVPKCINGFCKCVR-OH; N-terminus and C-terminus assumed) as the compound, how does the “COG Improvement” value read?
A: 2.3

Q: For `CC[C@H](C)[C@H](NC(=O)[C@H](CS)NC(=O)[C@H](CCCCN)NC(=O)[C@@H]1CCCN1C(=O)[C@@H](NC(=O)[C@H](CCCCN)NC(=O)[C@@H]1CCCN1C(=O)[C@H](CCCCN)NC(=O)[C@H](CCCNC(=N)N)NC(=O)[C@H](CS)NC(=O)[C@H](C)NC(=O)[C@H](Cc1ccccc1)NC(=O)[C@H](CCCCN)NC(=O)[C@H](CCCCN)NC(=O)[C@H](CS)NC(=O)[C@H](CC(=O)O)NC(=O)[C@H](CCCCN)NC(=O)[C@H](CC(=O)O)NC(=O)[C@H](CO)NC(=O)[C@H](CCC(N)=O)NC(=O)[C@H](CS)NC(=O)[C@@H]1CCCN1C(=O)[C@H](CCCCN)NC(=O)[C@@H](NC(=O)[C@@H](N)Cc1c[nH]c2ccccc12)[C@@H](C)O)C(C)C)C(=O)N[C@@H](CC(N)=O)C(=O)NCC(=O)N[C@@H](Cc1ccccc1)C(=O)N[C@@H](CS)C(=O)N[C@@H](CCCCN)C(=O)N[C@@H](CS)C(=O)N[C@H](C(=O)N[C@@H](CCCNC(=N)N)C(=O)O)C(C)C` [NVPM7] (H-WTKPCQSDKDCKKFACRKPKVPKCINGFCKCVR-OH; N-terminus and C-terminus assumed), which “COG Improvement” value is on record?
A: 4.46

Q: And the overall improvement?
A: 4.5 fold

Q: With `CC[C@H](C)[C@H](NC(=O)[C@H](CS)NC(=O)[C@H](CCCCN)NC(=O)[C@@H]1CCCN1C(=O)[C@@H](NC(=O)[C@H](CCCCN)NC(=O)[C@@H]1CCCN1C(=O)[C@H](CCCCN)NC(=O)[C@H](CCCNC(=N)N)NC(=O)[C@H](CS)NC(=O)[C@H](C)NC(=O)[C@H](Cc1ccccc1)NC(=O)[C@H](CCCCN)NC(=O)[C@H](CCCCN)NC(=O)[C@H](CS)NC(=O)[C@H](CC(=O)O)NC(=O)[C@H](CCCCN)NC(=O)[C@H](CC(=O)O)NC(=O)[C@H](CO)NC(=O)[C@H](CCC(N)=O)NC(=O)[C@H](CS)NC(=O)[C@@H]1CCCN1C(=O)[C@H](CCCCN)NC(=O)[C@@H](NC(=O)[C@@H](N)CO)[C@@H](C)O)C(C)C)C(=O)N[C@@H](CC(N)=O)C(=O)NCC(=O)N[C@@H](Cc1ccccc1)C(=O)N[C@@H](CS)C(=O)N[C@@H](CCCCN)C(=O)N[C@@H](CS)C(=O)N[C@H](C(=O)N[C@@H](CCCNC(=N)N)C(=O)O)C(C)C` [NVPM9] (H-STKPCQSDKDCKKFACRKPKVPKCINGFCKCVR-OH; N-terminus and C-terminus assumed) as the compound, how does the “COG Improvement” value read?
A: 1.78

Q: For `CC[C@H](C)[C@H](NC(=O)[C@H](CS)NC(=O)[C@H](CCCCN)NC(=O)[C@@H]1CCCN1C(=O)[C@@H](NC(=O)[C@H](CCCCN)NC(=O)[C@@H]1CCCN1C(=O)[C@H](CCCCN)NC(=O)[C@H](CCCNC(=N)N)NC(=O)[C@H](CS)NC(=O)[C@H](C)NC(=O)[C@H](Cc1ccccc1)NC(=O)[C@H](CCCCN)NC(=O)[C@H](CCCCN)NC(=O)[C@H](CS)NC(=O)[C@H](CC(=O)O)NC(=O)[C@H](CCCCN)NC(=O)[C@H](CC(=O)O)NC(=O)[C@H](CO)NC(=O)[C@H](CCC(N)=O)NC(=O)[C@H](CS)NC(=O)[C@@H]1CCCN1C(=O)[C@H](CCCCN)NC(=O)[C@@H](NC(=O)[C@@H](N)Cc1ccc(O)cc1)[C@@H](C)O)C(C)C)C(=O)N[C@@H](CC(N)=O)C(=O)NCC(=O)N[C@@H](Cc1ccccc1)C(=O)N[C@@H](CS)C(=O)N[C@@H](CCCCN)C(=O)N[C@@H](CS)C(=O)N[C@H](C(=O)N[C@@H](CCCNC(=N)N)C(=O)O)C(C)C` [NVPM11] (H-YTKPCQSDKDCKKFACRKPKVPKCINGFCKCVR-OH; N-terminus and C-terminus assumed), which “COG Improvement” value is on record?
A: 2.5

Where a SMILES comes first, the peptide text is derived from it.
